B1: humanized antibody 10 (antibody, V domains shown)
VH: EVQLLESGGGLVQPGGSLRLSCAASGFTFSNYGMSWVRQAPGKGLEWVSTISNSGRYTYFPDSVKGRFTISRDNSKNTLYLQMNSLRAEDTAVYYCAKHLDYANYDAMDYWGQGTLVTVSS
VL: DIVMTQTPLSLSVTPGQPASISCRASKSVTTSDFSYMHWYLQKPGQPPQLLIYLASNLESGVPDRFSGSGSGTDFTLKISRVEAEDVGVYYCQHSREFPWTFGQGTKVEIK
B2: humanized antibody 4 (antibody, V domains shown)
VH: EVQLLESGGGLVQPGGSLRLSCAASGFTFSNYGMSWVRQAPGKGLEWVSTISNSGRYTYFPDSVKGRFTISRDNSKNTLYLQMNSLRAEDTAVYYCAKHLDYANYDAMDYWGQGTLVTVSS
VL: DIQMTQSPSSLAVSLGDRVTITCRASKSVTTSDFSYMHWYQQKPGLAPKLLIYLASNLESGVPSRFSGSGSGTDFTFTISSLQPEDIATYYCQHSREFPWTFGQGTKVEVK
B3: humanized antibody 9 (antibody, V domains shown)
VH: QVQLQESGPGLVRPSQSLKLTCTVSGSTFSNYGMSWVRQTPEKRLEWIGTISNSGRYTYFPDSVKGRVTMLVDTSKNQFSLQMSSVTAADTAVYYCARHLDYANYDAMDYWGQGSLVTVSS
VL: DIVMTQTPLSSPVTLGQPASISCRASKSVTTSDFSYMHWLQQRPGQPPRLLIYLASNLESGVPDRFSGSGAGTDFTLKISRVEAEDVGVYYCQHSREFPWTFGQGTKVEIK
B4: humanized antibody 5 (antibody, V domains shown)
VH: EVQLLESGGGLVQPGGSLRLSCAASGFTFSNYGMSWVRQAPGKGLEWVSTISNSGRYTYFPDSVKGRFTISRDNSKNTLYLQMNSLRAEDTAVYYCAKHLDYANYDAMDYWGQGTLVTVSS
VL: DIQMTQSPSSLAVSLGDRVTITCRASKSVTTSDFSYMHWYQQTPGKAPKLLIYLASNLESGVPSRFSGSGSGTDYTFTISSLQPEDIATYYCQHSREFPWTFGQGTKLQIT
B5: humanized antibody 3 (antibody, V domains shown)
VH: EVQLLESGGGLVQPGGSLRLSCAASGFTFSNYGMSWVRQAPGKGLEWVSTISNSGRYTYFPDSVKGRFTISRDNSKNTLYLQMNSLRAEDTAVYYCAKHLDYANYDAMDYWGQGTLVTVSS
VL: DIQMTQSPSTLAVSLGDRVTITCRASKSVTTSDFSYMHWYQQKPGKAPKLLMYLASNLESGVPSRFIGSGSGTEFTLTISSLQPDDFATYYCQHSREFPWTFGQGTKVEVK
B6: humanized antibody 2 (antibody, V domains shown)
VH: EVQLLESGGGLVQPGGSLRLSCAASGFTFSNYGMSWVRQAPGKGLEWVSTISNSGRYTYFPDSVKGRFTISRDNSKNTLYLQMNSLRAEDTAVYYCAKHLDYANYDAMDYWGQGTLVTVSS
VL: DIVMTQTPLSSPVTLGQPASISCRASKSVTTSDFSYMHWLQQRPGQPPRLLIYLASNLESGVPDRFSGSGAGTDFTLKISRVEAEDVGVYYCQHSREFPWTFGQGTKVEIK
B7: humanized antibody 6 (antibody, V domains shown)
VH: EVQLVESGGGLVKPGGSLRLSCAASGFTFSNYGMSWVRQAPGKGLEWVSTISNSGRYTYFPDSVKGRFTISRDNAKNSLYLQMNSLRAEDTAVYYCARHLDYANYDAMDYWGQGTLVTVSS
VL: DIVMTQTPLSSPVTLGQPASISCRASKSVTTSDFSYMHWLQQRPGQPPRLLIYLASNLESGVPDRFSGSGAGTDFTLKISRVEAEDVGVYYCQHSREFPWTFGQGTKVEIK
B8: humanized antibody 7 (antibody, V domains shown)
VH: EVQLVESGGGVVRPGGSLRLSCAASGFTFDNYGMSWVRQAPGKGLEWVSTISNSGRYTYFPDSVKGRFTISRDNAKNSLYLQMNSLRAEDTALYHCARHLDYANYDAMDYWGQGTLVTVSS
VL: DIVMTQTPLSSPVTLGQPASISCRASKSVTTSDFSYMHWLQQRPGQPPRLLIYLASNLESGVPDRFSGSGAGTDFTLKISRVEAEDVGVYYCQHSREFPWTFGQGTKVEIK
B9: humanized antibody 1 (antibody, V domains shown)
VH: QVQLVESGGGVVQPGRSLRLSCSSSGFIFSNYGMSWVRQAPEKRLEWVATISNSGRYTYFPDSVKGRFTISRDNSKNTLFLQMDSLRPEDTGVYFCARHLDYANYDAMDYWGQGTPVTVSS
VL: DIVMTQSPNSLAVSLGERATINCRASKSVTTSDFSYMHWYQQKPGQPPKLLIYLASNLESGVPDRFSGSGSGTDFTLTISSLQAEDVAVYYCQHSREFPWTFGQGTKLEIK
B10: mucin subtype 5AC-specific mouse antibody (antibody, V domains shown)
VH: EVKLVESGGVLVKSGGSLKLSCAVSGFTFSNYGMSWVRQTPEKRLEWVATISNSGRYTYFPDSVKGRFAISRDNAKNNLYLQMSSLRSADTALYYCTRHLDYANYDAMDYWGQGTSVTVSS
VL: DIVLTQSPASLAVSLGQRATISCRASKSVTTSDFSYMHWYQQKPGQPPKLLLYLASNLESGVPDRFSGSGSGTDFTLNIHPVEEEDAATYYCQHSREFPWTFGGGTKLEIK

Protein sequences, listed by entry. Tags and fused reporters are not part of them. Residues count along the entry.
UniProt P98088, residues 28-5654: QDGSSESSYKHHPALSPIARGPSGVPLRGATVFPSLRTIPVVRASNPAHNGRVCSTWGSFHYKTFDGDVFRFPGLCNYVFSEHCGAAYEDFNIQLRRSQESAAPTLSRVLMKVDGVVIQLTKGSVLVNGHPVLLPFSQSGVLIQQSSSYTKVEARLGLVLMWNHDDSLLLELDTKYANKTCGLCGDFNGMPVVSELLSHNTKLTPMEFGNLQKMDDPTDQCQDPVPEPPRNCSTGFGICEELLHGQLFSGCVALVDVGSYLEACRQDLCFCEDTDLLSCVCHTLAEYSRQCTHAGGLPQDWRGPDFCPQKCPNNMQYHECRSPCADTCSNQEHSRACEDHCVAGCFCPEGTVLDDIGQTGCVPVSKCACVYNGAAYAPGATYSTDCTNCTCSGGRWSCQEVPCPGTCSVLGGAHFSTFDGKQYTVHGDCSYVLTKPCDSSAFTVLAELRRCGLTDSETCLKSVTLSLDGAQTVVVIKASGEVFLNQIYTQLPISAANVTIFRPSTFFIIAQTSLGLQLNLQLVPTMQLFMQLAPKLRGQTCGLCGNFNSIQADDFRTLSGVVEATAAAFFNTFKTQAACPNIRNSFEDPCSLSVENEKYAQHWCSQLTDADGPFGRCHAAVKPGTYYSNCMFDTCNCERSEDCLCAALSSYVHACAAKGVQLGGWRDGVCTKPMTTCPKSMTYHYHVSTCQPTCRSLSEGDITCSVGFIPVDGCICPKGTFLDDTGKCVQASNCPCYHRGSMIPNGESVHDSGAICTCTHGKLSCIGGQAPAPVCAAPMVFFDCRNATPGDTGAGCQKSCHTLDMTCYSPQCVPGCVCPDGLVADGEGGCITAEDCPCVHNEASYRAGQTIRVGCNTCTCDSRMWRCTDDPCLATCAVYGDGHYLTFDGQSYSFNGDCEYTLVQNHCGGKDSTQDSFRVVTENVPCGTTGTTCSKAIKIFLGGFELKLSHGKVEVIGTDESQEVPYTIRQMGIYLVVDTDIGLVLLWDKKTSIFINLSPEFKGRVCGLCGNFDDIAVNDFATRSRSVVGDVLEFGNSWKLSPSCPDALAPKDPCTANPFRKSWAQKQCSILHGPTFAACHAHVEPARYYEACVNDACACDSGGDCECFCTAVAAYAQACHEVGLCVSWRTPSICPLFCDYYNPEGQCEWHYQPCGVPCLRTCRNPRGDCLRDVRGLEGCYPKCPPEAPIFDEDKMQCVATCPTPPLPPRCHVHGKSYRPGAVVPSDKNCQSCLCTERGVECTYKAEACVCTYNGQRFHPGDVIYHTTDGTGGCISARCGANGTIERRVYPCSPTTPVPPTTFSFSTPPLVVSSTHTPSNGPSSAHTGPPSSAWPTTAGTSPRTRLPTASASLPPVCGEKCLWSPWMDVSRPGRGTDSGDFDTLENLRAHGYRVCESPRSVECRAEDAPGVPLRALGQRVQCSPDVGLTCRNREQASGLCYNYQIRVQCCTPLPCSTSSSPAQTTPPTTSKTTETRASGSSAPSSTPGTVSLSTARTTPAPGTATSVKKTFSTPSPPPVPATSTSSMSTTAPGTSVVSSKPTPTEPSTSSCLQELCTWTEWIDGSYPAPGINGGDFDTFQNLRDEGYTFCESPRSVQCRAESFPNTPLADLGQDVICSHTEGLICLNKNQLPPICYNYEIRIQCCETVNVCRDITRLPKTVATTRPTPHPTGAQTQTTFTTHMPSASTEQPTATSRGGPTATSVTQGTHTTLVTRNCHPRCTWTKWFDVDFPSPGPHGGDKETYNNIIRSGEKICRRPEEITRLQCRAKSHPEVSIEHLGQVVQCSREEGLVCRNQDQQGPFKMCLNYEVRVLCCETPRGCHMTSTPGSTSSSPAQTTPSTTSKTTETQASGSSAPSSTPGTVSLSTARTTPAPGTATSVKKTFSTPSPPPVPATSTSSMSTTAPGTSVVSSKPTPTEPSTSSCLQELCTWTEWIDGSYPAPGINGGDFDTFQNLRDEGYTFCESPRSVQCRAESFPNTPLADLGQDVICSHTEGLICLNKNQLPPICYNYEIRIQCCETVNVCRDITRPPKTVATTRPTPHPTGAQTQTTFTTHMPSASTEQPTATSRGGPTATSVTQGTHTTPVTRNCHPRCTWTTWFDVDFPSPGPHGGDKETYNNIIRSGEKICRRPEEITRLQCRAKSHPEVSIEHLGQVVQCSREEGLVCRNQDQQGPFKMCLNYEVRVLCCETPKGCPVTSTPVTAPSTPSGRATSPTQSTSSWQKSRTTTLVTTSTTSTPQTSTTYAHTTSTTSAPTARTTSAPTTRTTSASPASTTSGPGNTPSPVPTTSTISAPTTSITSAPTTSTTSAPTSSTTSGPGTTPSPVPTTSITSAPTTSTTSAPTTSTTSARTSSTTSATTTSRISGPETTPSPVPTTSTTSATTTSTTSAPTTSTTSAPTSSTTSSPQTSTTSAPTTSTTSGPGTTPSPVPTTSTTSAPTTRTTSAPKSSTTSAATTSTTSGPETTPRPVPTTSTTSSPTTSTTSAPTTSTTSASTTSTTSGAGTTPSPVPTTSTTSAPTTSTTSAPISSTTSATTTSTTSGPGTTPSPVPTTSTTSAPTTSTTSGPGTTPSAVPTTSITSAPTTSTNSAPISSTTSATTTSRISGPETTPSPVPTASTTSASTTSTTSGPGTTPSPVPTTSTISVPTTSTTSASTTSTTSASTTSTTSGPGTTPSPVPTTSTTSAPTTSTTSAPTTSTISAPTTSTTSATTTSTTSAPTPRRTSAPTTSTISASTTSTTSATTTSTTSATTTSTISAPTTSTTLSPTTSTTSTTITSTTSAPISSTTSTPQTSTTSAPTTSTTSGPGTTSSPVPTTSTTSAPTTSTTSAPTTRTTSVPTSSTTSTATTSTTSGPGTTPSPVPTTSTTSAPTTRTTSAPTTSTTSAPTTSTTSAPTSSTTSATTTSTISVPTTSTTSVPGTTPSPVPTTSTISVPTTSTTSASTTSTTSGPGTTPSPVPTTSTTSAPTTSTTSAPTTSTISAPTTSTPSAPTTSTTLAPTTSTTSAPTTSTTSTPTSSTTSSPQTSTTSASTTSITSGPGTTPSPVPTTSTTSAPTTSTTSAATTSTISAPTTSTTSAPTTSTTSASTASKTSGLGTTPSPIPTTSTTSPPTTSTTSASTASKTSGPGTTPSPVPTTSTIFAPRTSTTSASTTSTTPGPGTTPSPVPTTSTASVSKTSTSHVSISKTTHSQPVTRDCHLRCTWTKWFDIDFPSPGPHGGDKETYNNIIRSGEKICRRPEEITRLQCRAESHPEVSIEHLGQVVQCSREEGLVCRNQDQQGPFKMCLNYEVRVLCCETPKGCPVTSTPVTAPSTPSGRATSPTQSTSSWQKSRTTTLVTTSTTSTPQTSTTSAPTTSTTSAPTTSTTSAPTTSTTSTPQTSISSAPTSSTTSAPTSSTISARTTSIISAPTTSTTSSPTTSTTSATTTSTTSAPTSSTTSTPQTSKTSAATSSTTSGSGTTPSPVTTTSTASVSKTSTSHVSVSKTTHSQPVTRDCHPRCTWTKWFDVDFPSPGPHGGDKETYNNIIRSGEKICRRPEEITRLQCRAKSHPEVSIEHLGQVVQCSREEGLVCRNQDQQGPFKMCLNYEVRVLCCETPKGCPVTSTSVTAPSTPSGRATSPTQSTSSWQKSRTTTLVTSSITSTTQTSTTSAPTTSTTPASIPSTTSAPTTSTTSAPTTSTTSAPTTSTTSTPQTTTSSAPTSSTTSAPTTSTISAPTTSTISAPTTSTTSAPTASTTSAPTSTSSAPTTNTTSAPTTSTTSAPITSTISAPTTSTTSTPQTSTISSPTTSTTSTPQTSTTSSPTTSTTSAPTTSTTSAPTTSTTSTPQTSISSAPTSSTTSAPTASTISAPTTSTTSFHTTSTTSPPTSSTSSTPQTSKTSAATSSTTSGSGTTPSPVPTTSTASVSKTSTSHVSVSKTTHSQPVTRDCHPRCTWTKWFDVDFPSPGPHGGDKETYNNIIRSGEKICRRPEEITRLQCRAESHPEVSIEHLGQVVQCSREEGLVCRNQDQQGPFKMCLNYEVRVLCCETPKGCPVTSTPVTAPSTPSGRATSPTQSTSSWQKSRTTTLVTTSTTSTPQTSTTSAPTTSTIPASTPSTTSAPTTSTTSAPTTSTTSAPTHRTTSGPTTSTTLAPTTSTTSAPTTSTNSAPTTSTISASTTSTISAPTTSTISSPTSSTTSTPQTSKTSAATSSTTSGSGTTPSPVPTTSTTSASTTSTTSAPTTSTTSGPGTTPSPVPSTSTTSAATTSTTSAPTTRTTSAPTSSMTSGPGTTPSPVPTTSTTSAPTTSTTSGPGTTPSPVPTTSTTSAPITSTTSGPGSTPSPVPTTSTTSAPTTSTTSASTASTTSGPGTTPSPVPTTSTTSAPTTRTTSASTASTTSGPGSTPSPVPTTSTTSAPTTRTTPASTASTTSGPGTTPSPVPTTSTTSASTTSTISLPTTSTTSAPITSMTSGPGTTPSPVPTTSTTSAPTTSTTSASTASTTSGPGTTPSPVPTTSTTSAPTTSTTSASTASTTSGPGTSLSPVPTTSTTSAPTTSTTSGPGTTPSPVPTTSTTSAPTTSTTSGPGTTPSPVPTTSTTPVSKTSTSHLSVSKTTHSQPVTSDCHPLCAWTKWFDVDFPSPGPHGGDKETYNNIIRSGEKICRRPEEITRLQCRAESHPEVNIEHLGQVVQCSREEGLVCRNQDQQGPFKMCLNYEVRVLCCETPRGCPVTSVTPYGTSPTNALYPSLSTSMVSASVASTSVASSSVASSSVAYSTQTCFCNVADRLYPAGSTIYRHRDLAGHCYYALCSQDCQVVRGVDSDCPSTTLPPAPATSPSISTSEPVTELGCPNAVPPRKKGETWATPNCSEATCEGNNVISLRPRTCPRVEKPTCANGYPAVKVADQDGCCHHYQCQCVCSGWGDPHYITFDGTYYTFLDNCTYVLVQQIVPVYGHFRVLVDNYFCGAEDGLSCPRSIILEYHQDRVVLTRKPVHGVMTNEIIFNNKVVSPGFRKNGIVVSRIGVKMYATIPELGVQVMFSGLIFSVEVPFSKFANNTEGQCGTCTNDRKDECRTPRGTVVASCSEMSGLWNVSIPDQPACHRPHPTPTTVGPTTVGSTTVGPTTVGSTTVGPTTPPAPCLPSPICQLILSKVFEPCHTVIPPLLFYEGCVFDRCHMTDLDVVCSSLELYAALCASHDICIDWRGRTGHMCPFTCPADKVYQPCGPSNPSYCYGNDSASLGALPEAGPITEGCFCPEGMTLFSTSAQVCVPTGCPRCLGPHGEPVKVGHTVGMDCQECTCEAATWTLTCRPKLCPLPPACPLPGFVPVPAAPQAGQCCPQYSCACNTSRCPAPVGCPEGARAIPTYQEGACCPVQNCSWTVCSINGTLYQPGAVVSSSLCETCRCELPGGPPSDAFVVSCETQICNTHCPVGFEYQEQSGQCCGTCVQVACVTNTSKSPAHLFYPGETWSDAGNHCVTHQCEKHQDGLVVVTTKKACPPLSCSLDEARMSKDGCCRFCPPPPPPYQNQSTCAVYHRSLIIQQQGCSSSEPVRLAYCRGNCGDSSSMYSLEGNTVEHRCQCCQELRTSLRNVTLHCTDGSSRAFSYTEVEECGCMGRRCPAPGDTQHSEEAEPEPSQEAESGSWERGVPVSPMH

Results are given in words; binding and its absence hold for the method and conditions named. Some binding calls cover weakened binding; strength is not graded here.

For one assay, the target named is mucin subtype 5AC expressed on BxPC3 cells (human) (UniProt P98088). Description: flow cytometry on BxPC3 cells expressing mucin subtype 5AC, 20 ug/mL antibody. In general terms: Flow cytometry measures light scatter and fluorescence of single cells or particles in a stream.
In the case of B1, the binding entry is recorded as “binds”.

On to B2, for which the binding result was “binds”.

For the molecule B3, the binding result was “binds”.

For the molecule B4, the binding entry is recorded as “binds”.

B5: the binding entry is reported as “binds”.

Regarding B6, the binding result was “binds”.

For B7, the binding entry is “binds”.

Consider B8, for which the binding result is on record as “binds”.

Consider B9, for which the binding entry is reported as “binds”.

For another assay the target is unchanged. Description: flow cytometry on BxPC3 cells expressing mucin subtype 5AC, 20 ug/mL antibody (reference antibody).
Consider B10, for which the binding result was “binds”.

Source of the values: patent publication WO2013157105A1.
